Source: PMC7866234
Results are given in words; binding and its absence hold for the method and conditions named. In cells and extracts the contact can be indirect. Some results given as binding are weak or reduced against the parent protein; the word gives no strength.

Amino acid sequences for entries named in this document (tags omitted).
UniProt Q96GY3: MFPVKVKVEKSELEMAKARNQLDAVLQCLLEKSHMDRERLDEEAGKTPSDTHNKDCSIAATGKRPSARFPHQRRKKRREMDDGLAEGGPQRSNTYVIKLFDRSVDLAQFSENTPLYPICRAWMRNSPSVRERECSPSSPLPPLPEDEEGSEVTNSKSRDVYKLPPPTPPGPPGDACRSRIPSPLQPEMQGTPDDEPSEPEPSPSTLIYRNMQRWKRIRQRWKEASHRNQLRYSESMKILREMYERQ
UniProt P06788: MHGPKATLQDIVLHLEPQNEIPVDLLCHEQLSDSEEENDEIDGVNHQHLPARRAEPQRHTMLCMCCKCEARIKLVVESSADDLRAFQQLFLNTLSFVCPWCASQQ
UniProt P03129: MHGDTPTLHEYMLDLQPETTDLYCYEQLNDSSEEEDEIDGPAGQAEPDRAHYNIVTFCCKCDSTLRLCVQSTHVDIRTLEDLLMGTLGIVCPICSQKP
UniProt Q5TKA1: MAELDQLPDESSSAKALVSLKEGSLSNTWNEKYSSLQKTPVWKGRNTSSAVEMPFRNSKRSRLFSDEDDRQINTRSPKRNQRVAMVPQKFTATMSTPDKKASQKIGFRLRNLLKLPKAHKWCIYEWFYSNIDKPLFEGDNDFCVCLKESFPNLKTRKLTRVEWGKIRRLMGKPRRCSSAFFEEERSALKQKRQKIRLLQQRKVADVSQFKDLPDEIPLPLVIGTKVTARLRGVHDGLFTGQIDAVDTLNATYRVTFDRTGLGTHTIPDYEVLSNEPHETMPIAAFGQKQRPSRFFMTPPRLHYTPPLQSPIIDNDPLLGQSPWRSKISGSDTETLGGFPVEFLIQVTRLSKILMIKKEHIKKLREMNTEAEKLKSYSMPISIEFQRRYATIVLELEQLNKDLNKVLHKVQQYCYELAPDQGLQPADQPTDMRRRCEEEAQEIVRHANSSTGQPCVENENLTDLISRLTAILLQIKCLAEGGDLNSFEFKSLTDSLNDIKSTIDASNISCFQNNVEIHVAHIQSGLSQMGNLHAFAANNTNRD
UniProt Q08999: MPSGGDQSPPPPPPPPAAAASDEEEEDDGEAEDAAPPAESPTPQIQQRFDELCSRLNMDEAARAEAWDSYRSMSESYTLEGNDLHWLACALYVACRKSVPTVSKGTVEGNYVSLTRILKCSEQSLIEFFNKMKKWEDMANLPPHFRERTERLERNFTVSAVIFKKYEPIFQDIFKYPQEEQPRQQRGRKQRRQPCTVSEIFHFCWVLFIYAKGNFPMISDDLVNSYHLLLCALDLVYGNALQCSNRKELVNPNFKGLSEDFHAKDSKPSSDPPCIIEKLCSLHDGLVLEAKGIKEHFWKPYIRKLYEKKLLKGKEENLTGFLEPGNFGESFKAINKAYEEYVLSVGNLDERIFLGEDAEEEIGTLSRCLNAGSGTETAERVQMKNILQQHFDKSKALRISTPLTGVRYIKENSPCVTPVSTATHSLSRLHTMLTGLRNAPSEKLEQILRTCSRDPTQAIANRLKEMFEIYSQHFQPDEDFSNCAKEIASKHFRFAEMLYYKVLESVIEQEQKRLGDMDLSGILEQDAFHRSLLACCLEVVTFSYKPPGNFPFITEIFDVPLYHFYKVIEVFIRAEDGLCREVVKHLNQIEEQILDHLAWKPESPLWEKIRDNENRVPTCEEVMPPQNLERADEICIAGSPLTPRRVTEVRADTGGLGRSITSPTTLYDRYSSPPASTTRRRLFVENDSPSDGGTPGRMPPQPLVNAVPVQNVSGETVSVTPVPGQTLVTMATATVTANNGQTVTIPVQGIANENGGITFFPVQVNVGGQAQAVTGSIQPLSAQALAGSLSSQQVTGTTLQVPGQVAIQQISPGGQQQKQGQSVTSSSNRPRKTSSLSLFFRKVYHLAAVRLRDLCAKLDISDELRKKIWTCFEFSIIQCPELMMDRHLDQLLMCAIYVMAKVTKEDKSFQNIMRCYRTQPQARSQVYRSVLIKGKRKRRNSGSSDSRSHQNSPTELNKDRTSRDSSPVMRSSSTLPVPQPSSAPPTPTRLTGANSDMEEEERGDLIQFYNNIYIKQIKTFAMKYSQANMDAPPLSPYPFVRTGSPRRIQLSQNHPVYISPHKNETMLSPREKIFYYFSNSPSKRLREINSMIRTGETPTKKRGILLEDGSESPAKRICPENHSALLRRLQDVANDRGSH
UniProt P10244: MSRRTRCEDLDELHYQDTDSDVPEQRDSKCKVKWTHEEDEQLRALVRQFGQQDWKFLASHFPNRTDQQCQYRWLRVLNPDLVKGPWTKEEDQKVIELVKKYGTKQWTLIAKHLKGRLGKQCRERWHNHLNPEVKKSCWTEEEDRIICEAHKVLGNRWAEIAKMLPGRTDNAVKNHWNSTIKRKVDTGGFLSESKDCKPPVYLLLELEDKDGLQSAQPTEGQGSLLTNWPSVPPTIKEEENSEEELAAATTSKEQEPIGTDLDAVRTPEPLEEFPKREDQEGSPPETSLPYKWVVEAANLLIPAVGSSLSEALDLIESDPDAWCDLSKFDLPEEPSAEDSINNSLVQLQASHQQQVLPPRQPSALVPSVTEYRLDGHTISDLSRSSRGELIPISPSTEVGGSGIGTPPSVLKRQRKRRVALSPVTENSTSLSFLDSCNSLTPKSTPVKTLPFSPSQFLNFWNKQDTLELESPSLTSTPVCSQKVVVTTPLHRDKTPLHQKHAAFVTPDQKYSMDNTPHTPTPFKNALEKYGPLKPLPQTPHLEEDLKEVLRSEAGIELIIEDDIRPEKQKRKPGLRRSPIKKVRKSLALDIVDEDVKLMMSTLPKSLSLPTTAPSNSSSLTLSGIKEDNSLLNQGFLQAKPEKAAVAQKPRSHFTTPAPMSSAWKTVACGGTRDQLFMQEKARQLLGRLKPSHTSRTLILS

How the values were obtained:
[1] = target: LIN37 (human (endogenous in N/Tert-1, HeLa, SiHa)) (UniProt Q96GY3); assay: co-IP; LIN37 precipitated from HeLa and SiHa cell lines (control, LIN52 WT or LIN52-S20C expressing); EBC buffer extracts, capturing antibody and protein A Sepharose overnight at 4 °C
[2] = target: LIN37 (human (endogenous in N/Tert-1, HeLa, SiHa)) (UniProt Q96GY3); assay: co-IP; LIN37 precipitated from N/Tert-1 and N/Tert-1+HPV16 cell lines (also lines expressing LIN52 WT or S20C); EBC buffer extracts, capturing antibody and protein A Sepharose overnight at 4 °C
HPV18 E7 (HPV18) = HPV18 E7 (HPV18) (UniProt P06788); assay: co-IP
HPV16 E7 (HPV16) = HPV16 E7 (HPV16) (UniProt P03129); assay: co-IP

Substance | binding [1] | binding [2] | binding (HPV18 E7 (HPV18)) | binding (HPV16 E7 (HPV16))
LIN9 (from UniProt Q5TKA1 1-542) | binds | – | – | –
p130 (from UniProt Q08999 1-1139) | binds | binds | binds | binds
B-Myb (from UniProt P10244 1-700) | – | binds | – | –
